Here are results for one sequence from ChEMBL document CHEMBL3259574, “Environmentally benign synthesis and antimicrobial study of novel chalcogenophosphates” (Bioorg Med Chem Lett, 2014).

This test deals with Candida albicans. Put plainly: Antimicrobial activity against Candida albicans MTCC227 assessed as zone diameter at 100 ug/ml after 24 hrs incubation by agar diffusion as say cup method. The format is functional. In a few lines: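 Agar cup diffusion on nutrient agar plates. Solidified plates were spread with 0.1% cell suspension (10^6 CFU/mL) of the test organism and held 15 min, then 6 mm wells were cut. Samples at 100 µg/mL in DMSO went into the wells, and plates were incubated 24 h at 30–35 °C. Inhibition zone diameter was measured in mm by digital vernier caliper. Triplicate parallel sets gave mean ± standard deviation, compared by ANOVA with Tukey test (P < 0.01).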

As to NYSTATIN, the inhibition zone (IZ) was 39.2 mm.
